Experimental data taken from PMC7239452.
No constants are given. Whether binding was seen depends on the method and setting. Binding seen in cells or lysates may run through a third protein. Some binding calls cover weakened binding; strength is not graded here.

Target: T1, Sec24D (mouse, Min-6 insulinoma cells) (mouse (endogenous in Min-6)) (UniProt Q6NXL1)
T1 sequence: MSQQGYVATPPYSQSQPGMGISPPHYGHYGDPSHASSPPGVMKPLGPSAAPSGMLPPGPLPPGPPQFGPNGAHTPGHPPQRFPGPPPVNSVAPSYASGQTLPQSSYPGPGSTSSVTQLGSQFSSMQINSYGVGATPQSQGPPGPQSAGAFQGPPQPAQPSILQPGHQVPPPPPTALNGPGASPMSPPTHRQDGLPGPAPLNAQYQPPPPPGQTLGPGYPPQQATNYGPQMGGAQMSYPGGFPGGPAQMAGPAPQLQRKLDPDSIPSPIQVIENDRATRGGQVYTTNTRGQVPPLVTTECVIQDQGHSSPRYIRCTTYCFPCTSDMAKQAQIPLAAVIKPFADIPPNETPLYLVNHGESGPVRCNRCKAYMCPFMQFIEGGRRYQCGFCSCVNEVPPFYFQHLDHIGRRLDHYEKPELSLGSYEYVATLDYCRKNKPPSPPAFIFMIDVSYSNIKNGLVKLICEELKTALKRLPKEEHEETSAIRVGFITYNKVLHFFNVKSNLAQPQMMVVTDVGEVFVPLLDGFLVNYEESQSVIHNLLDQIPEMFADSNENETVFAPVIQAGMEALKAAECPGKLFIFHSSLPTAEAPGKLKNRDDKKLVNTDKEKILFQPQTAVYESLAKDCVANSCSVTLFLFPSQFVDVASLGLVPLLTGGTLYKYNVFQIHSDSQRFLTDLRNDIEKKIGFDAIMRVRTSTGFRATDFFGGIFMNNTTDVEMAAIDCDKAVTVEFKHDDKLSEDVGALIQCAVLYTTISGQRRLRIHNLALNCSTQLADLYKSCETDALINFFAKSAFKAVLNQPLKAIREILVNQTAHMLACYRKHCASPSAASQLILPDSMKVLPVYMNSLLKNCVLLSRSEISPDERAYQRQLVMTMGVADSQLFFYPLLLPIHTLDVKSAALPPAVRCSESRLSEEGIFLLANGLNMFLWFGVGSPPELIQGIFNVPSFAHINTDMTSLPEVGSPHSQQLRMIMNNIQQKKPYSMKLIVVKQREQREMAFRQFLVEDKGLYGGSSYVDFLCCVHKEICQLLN
Assay: co-IP; Min-6 cells lysed under non-denaturing conditions (RIPA without SDS or Thermo lysis buffer); 500 ug lysate protein, 10 ul primary antibody 1 h at room temperature, Protein G PLUS agarose 2 h; precipitate read by SDS-PAGE and immunoblot

binding: binds
Substance: ERp29 (ER protein of 29 kDa; mouse, Min-6 insulinoma cells) (from UniProt P57759 35-262)
